The list does not hold the whole screen: it gathers tests that were run many times, whatever their T/C, doses with no T/C, and many T/C values between a quarter and a half above the control. Further doses and runs are listed elsewhere. T/C is the treated group as % of the vehicle group. Schedules are NCI's codes, taken here to give the interval after Q, in days (D) or hours (H), and the number of doses after X. Some T/C values are followed by the survivors on the day toxicity was checked, most often the fifth; without a count, all were alive then. Some entries give survivors of the animals treated and no T/C: the source holds a T/C of zero for them, seemingly a mark for toxic or unscored doses. Survivors were counted at the toxicity check, usually on the fifth day, unless a day is given; later deaths do not show. Some entries were tested several times; the values are given in rising order.
Test system: nude mice, HT29 intrarenal xenograft, tumor weight T/C
Assay: NCI In Vivo Anticancer Drug Screen. Data for tumor model HT29;CX-1 Human Adenocarcinoma (MER+) (intrarenal inoculation) in NU/NU Swiss (nude) mice
Conditions: T/C endpoint: mean tumor weight change, higher T/C = larger tumour
Summary of the method: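 Endpoint measured as tumor size or survival; ratio reported is treated group over vehicle controls.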

[1] = dose: 1200.0 mg/kg/injection, schedule: Q04DX004 (sc), vehicle: Klucel (hydroxypropylcellulose) (HPC)
[2] = dose: 600.0 mg/kg/injection, schedule: Q04DX004 (sc), vehicle: saline
[3] = dose: 300.0 mg/kg/injection, schedule: Q04DX004 (sc), vehicle: saline
[4] = dose: 200.0 mg/kg/injection, schedule: Q01DX010 (sc), vehicle: saline

In the case of `COC1C(CO)OC(n2cnc3c(=S)nc(N)[nH]c32)C1O` (centres undefined), the T/C (dose: 300.0 mg/kg/injection, schedule: Q04DX004 (sc), vehicle: Klucel (hydroxypropylcellulose) (HPC), evaluated on day 15) is reported as 144 % of control, the T/C (dose: 600.0 mg/kg/injection, schedule: Q04DX004 (sc), vehicle: Klucel (hydroxypropylcellulose) (HPC), evaluated on day 15) is reported as 144 % of control [5 of 6 alive on day 15] and the survivor count [1] is reported as 0 of 5 on day 15.

With `COC1C(OC(=O)/C=C/C=C/C=C/C=C/C(=O)O)CCC2(CO2)C1C1(C)OC1CC=C(C)C` (centres undefined) the survivor count [2] was 2 of 6 on day 15.

For `O=C(NP(=O)(N1CC1)N1CC1)c1cc(I)ccc1I`, the T/C (dose: 75.0 mg/kg/injection, schedule: Q04DX004 (sc), vehicle: saline, evaluated on day 15) was 132 % of control, the T/C (dose: 150.0 mg/kg/injection, schedule: Q04DX004 (sc), vehicle: saline, evaluated on day 15) was 142 % of control and the survivor count [3] was 3 of 6 on day 15. The survivor count [2] was 0 of 4 on day 15.

For `CCC(C(=O)O)C(=O)O.[NH2-].[NH2-].[Pt+2]`, the T/C (dose: 37.5 mg/kg/injection, schedule: Q04DX004 (sc), vehicle: saline, evaluated on day 15) was 142 % of control and the survivor count [3] was 1 of 6 on day 15.

In the case of `Cc1cc(N(CC(C)Br)CC(C)Br)ccc1N=Nc1ccccc1C(=O)O` (centres undefined), the survivor count (dose: 25.0 mg/kg/injection, schedule: Q01DX010 (sc), vehicle: saline with Tween-80) is reported as 0 of 3 on day 11.

In the case of `OCC1OC(n2cnc3c(Cl)ncnc32)C(O)C1O` (centres undefined), the survivor count (dose: 2400.0 mg/kg/injection, schedule: Q04DX004 (sc), vehicle: saline) is reported as 2 of 5 on day 15.

In the case of `CNNCc1ccc(C(=O)NC(C)C)cc1`, the survivor count [4] is reported as 1 of 3 on day 11 and the survivor count (dose: 800.0 mg/kg/injection, schedule: Q01DX010 (sc), vehicle: saline) is reported as 0 of 3 on day 11.

In the case of `O=C1C=C[C@H](O)[C@@]2(CO)O[C@@H]12`, the T/C (dose: 3.12 mg/kg/injection, schedule: Q04DX004 (sc), vehicle: saline with Tween-80, evaluated on day 15) is reported as 136 % of control and the survivor count (dose: 25.0 mg/kg/injection, schedule: Q04DX004 (sc), vehicle: saline with Tween-80) is reported as 0 of 6 on day 15.

In the case of `C[C@H](N)C(=O)N[C@@H]1[C@H]2C(=C(O)C[C@@H](O)[C@@H]2O)C(=O)O[C@]1(C)C(Cl)Cl`, the survivor count (dose: 3.0 mg/kg/injection, schedule: Q04DX004 (sc), vehicle: Klucel (hydroxypropylcellulose) (HPC)) is reported as 3 of 6 on day 15, the survivor count (dose: 6.0 mg/kg/injection, schedule: Q04DX004 (sc), vehicle: Klucel (hydroxypropylcellulose) (HPC)) is reported as 0 of 6 on day 15 and the survivor count (dose: 12.0 mg/kg/injection, schedule: Q04DX004 (sc), vehicle: Klucel (hydroxypropylcellulose) (HPC)) is reported as 0 of 6 on day 15.

In the case of `NC(=O)c1ncn2c(=O)n(CCCl)nnc12`, the T/C (dose: 12.5 mg/kg/injection, schedule: Q04DX004 (sc), vehicle: suspension in saline, evaluated on day 15) is reported as 138 % of control and the survivor count (dose: 100.0 mg/kg/injection, schedule: Q04DX004 (sc), vehicle: suspension in saline) is reported as 2 of 6 on day 15.

`CC(C)CCCCCCCCCCCCC(=O)NCC(=O)NC1C(O)C(O)C(Nc2ncnc3nc[nH]c23)OC1C(O)CO` (centres undefined) was tested, and the survivor count (dose: 3.2 mg/kg/injection, schedule: Q01DX010 (sc), vehicle: saline) was 0 of 3 on day 11 and 0 of 3 on day 20, the survivor count (dose: 6.0 mg/kg/injection, schedule: Q04DX004 (sc), vehicle: suspension in saline) was 1 of 3 on day 15 and the survivor count (dose: 12.0 mg/kg/injection, schedule: Q04DX004 (sc), vehicle: suspension in saline) was 0 of 3 on day 15. For the same molecule, the survivor count (dose: 24.0 mg/kg/injection, schedule: Q04DX004 (sc), vehicle: suspension in saline) was 0 of 3 on day 15.

With `COc1cccc2c1C(=O)c1c(O)c3c(c(O)c1C2=O)C[C@@](O)(/C(C)=N/NC(=O)c1ccccc1)C[C@@H]3OC1CC(N)C(O)C(C)O1` (some centres undefined) the T/C (dose: 9.38 mg/kg/injection, schedule: Q04DX004 (sc), vehicle: water, evaluated on day 15) was 140 % of control and the survivor count (dose: 75.0 mg/kg/injection, schedule: Q04DX004 (sc), vehicle: water) was 2 of 6 on day 15.

In the case of `C[C@]12CC[C@@H]3c4ccc(O)cc4CC[C@H]3[C@@H]1CC[C@@H]2O`, the survivor count [1] is reported as 3 of 6 on day 15 and the survivor count (dose: 2400.0 mg/kg/injection, schedule: Q04DX004 (sc), vehicle: Klucel (hydroxypropylcellulose) (HPC)) is reported as 1 of 6 on day 15.

`O=c1n(CC2CO2)c(=O)n(CC2CO2)c(=O)n1CC1CO1` (centres undefined) was tested, and the survivor count (dose: 75.0 mg/kg/injection, schedule: Q04DX004 (sc), vehicle: saline with Tween-80) was 1 of 6 on day 15, the survivor count (dose: 100.0 mg/kg/injection, schedule: Q01DX010 (sc), vehicle: saline) was 0 of 3 on day 11 and the survivor count (dose: 150.0 mg/kg/injection, schedule: Q04DX004 (sc), vehicle: saline with Tween-80) was 0 of 6 on day 15. For the same molecule, the survivor count [4] was 0 of 3 on day 11.

With `Cc1ccc(NC(=O)Oc2ccc(Br)cc2Br)c([N+](=O)[O-])c1` the T/C (dose: 150.0 mg/kg/injection, schedule: Q04DX004 (sc), vehicle: saline with Tween-80, evaluated on day 15) was 132 % of control [5 of 6 alive on day 15].

With `CC[PH+](CC)CC[S-].CC[PH+](CC)CC[S-].[Au+].[Au+]` the T/C (dose: 20.0 mg/kg/injection, schedule: Q04DX004 (sc), vehicle: Klucel (hydroxypropylcellulose) (HPC), evaluated on day 15) was 145 % of control, the T/C (dose: 40.0 mg/kg/injection, schedule: Q04DX004 (sc), vehicle: Klucel (hydroxypropylcellulose) (HPC), evaluated on day 15) was 139 % of control and the T/C (dose: 80.0 mg/kg/injection, schedule: Q04DX004 (sc), vehicle: Klucel (hydroxypropylcellulose) (HPC), evaluated on day 15) was 149 % of control.

`CC1OC1C(=O)C1(O)C(C)C(O)C23OC2(C(O)c2c(O)cccc2C3=O)C1O` (centres undefined) was tested, and the survivor count (dose: 96.0 mg/kg/injection, schedule: Q04DX004 (sc), vehicle: Klucel (hydroxypropylcellulose) (HPC)) was 0 of 6 on day 15.

In the case of `Cc1cc(NCCCCCCCNc2cc(C)nc3cc(N)ccc23)c2ccc(N)cc2n1`, the survivor count (dose: 100.0 mg/kg/injection, schedule: Q04DX004 (sc), vehicle: saline with Tween-80) is reported as 1 of 6 on day 15.

In the case of `N=C(N)Sc1cc(O)ccc1O`, the survivor count [2] is reported as 0 of 6 on day 15.

With `C#C[C@]1(O)CC[C@H]2[C@@H]3CCc4cc(O)ccc4[C@H]3CC[C@@]21C` the survivor count (dose: 300.0 mg/kg/injection, schedule: Q04DX004 (sc), vehicle: Klucel (hydroxypropylcellulose) (HPC)) was 3 of 6 on day 15.

With `COc1cc2c(c(OC)c1OC)-c1c(cc3c(c1OC)OCO3)CC(C)C(C)(O)C2OC(=O)c1ccccc1` (centres undefined) the T/C (dose: 150.0 mg/kg/injection, schedule: Q04DX004 (sc), vehicle: saline + alcohol, evaluated on day 15) was 130 % of control, the T/C (dose: 300.0 mg/kg/injection, schedule: Q04DX004 (sc), vehicle: saline + alcohol, evaluated on day 15) was 128 % of control and the T/C (dose: 600.0 mg/kg/injection, schedule: Q04DX004 (sc), vehicle: saline + alcohol, evaluated on day 15) was 138 % of control.

With `CSCS(=O)C[C@H](CO)NC(=O)/C=C/c1c(C)[nH]c(=O)[nH]c1=O` (some centres undefined) the survivor count (dose: 3.0 mg/kg/injection, schedule: Q04DX004 (sc), vehicle: saline) was 3 of 6 on day 15 and the survivor count (dose: 6.0 mg/kg/injection, schedule: Q04DX004 (sc), vehicle: saline) was 0 of 6 on day 15.

For `Cc1oc2c(C)c3oc(=O)cc(C)c3cc2c1CCl`, the survivor count (dose: 1200.0 mg/kg/injection, schedule: Q04DX004 (sc), vehicle: saline with Tween-80) was 3 of 6 on day 15.

`c1ccc2sc(SSN3CC4CCC(CC4)C3)nc2c1` was tested, and the T/C (dose: 100.0 mg/kg/injection, schedule: Q01DX010 (sc), vehicle: saline with Tween-80, evaluated on day 20) was 127 % of control.

With `S=c1nc[nH]c2nc[nH]c12` the T/C (dose: 25.0 mg/kg/injection, schedule: Q01DX010 (sc), vehicle: Klucel (hydroxypropylcellulose) (HPC), evaluated on day 11) was 131 % of control, the survivor count (dose: 50.0 mg/kg/injection, schedule: Q01DX010 (sc), vehicle: Klucel (hydroxypropylcellulose) (HPC)) was 0 of 3 on day 11 and 1 of 3 on day 11 and the survivor count (dose: 100.0 mg/kg/injection, schedule: Q01DX010 (sc), vehicle: Klucel (hydroxypropylcellulose) (HPC)) was 0 of 3 on day 11. For the same molecule, the survivor count (dose: 200.0 mg/kg/injection, schedule: Q01DX010 (sc), vehicle: Klucel (hydroxypropylcellulose) (HPC)) was 0 of 3 on day 11.

`C=C(C)C(=O)OC1C/C(CO)=C\C(O)C/C(C)=C/C2OC(=O)C(=C)C21` (centres undefined) was tested, and the survivor count (dose: 160.0 mg/kg/injection, schedule: Q04DX004 (sc), vehicle: saline + alcohol) was 1 of 6 on day 15.

For `CCOC(=O)[C@]1(Br)CC[C@@]1(Br)C(=O)OCC`, the T/C (dose: 200.0 mg/kg/injection, schedule: Q04DX004 (sc), vehicle: saline with Tween-80, evaluated on day 15) was 140 % of control.

Reference: PubChem BioAssay AID206 (DTP/NCI, 2004)
